Measurements from publication PMC2784748.

Sequences of proteins named here, by UniProt entry; tags and fusion partners are left off.
UniProt Q07666: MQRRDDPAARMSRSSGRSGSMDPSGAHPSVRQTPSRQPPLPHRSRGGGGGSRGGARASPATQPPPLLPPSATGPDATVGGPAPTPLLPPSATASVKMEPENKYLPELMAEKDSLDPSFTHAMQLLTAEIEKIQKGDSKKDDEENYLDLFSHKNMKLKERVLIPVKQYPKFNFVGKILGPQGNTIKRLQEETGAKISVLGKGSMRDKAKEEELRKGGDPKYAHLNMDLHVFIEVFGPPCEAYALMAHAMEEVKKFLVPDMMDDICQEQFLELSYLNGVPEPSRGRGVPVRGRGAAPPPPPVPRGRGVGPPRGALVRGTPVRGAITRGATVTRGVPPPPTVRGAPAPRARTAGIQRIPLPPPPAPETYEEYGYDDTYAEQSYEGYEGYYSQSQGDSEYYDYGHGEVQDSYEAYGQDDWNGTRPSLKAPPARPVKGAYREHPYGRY
UniProt P38159: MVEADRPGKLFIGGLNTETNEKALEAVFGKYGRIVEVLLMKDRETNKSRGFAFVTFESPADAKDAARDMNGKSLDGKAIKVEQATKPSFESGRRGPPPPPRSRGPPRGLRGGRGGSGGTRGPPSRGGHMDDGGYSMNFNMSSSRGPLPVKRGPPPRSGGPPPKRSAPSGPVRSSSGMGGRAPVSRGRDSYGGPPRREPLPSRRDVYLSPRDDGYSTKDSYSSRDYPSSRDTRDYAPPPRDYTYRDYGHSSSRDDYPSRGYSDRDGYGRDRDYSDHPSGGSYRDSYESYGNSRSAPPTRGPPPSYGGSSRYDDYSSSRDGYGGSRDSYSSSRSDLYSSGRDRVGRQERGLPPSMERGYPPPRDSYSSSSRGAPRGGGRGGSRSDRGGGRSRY

Biological target: Sam68 (Src-associated in mitosis 68 kDa) (human (endogenous in LNCaP)) (UniProt Q07666)
Assay: affinity purification with mass spectrometry; endogenous Sam68 immunoprecipitated from LNCaP cell nuclear extracts with anti-Sam68 rabbit antisera on Dynabeads Protein A; SDS-PAGE, Coomassie-stained bands excised, trypsin, MALDI-TOF peptide mass fingerprinting, Mascot search

binding: binds
Substance: heterogeneous nuclear ribonucleoprotein G (from UniProt P38159 1-391)

Results are given in words; binding and its absence hold for the method and conditions named. In cells and extracts the contact can be indirect. These calls come from enrichment with a bait or labelling near it, and not all partners need be listed.
